Results reported in PubChem BioAssay AID540276 (National Center for Advancing Translational Sciences (NCATS), 2011).
Several values for one entry are separate records, joined by “and”; a condition that tells them apart may be missing. Equal values may be shown once. About 5,400 (1.8%) of roughly 300,000 compounds were called active. The inconclusive results got no clear call from the source; some entries with a clear call stand among them for comparison. Calls follow the shape of the full dose curve; tested in HEK293 cells. Potencies of inconclusive entries are doubtful fits and often do not repeat. Some structures have more than one record in an assay (separate samples or runs), and their calls can disagree.

Assay: qHTS for inhibitors of binding or entry into cells for Marburg Virus
Settings: Marburg virus pseudotyped entry inhibition, cell reporter; series mostly up to 37.8 µM
Potency is read from the fitted curve at half-maximal effect.

SMILES | Potency
O=C(NCCCN1CCOCC1)c1cc(-c2ccc(Br)cc2)nc2ccccc12 | inconclusive: 11.2 µM [inhibitor, partial curve, poor fit]
O=C(NCCCN1CCCC1)c1ccc2c(c1)N(Cc1ccccc1)CCS2 | inconclusive: 35.5 µM [inhibitor, single point]
Cc1onc(-c2c(Cl)cccc2Cl)c1C(=O)Nc1nc(C(C)(C)C)cs1 | inconclusive: 35.5 µM [inhibitor, partial curve, poor fit]
CN(C(=O)c1cccc(Nc2ccc(-c3ccc4c(c3)OCCO4)nn2)c1)C1CCCCC1 | inconclusive: 35.5 µM [inhibitor, single point]
COc1cc(/C=C2/C(=O)N(c3ccc(C(=O)O)cc3)N=C2C)cc(OC)c1O | inactive
O=C(Nc1ccc(S(=O)(=O)NCc2ccco2)cc1)c1ccc2ccccc2n1 | inconclusive: 20 µM [inhibitor, partial curve, poor fit]
COc1ccc(-c2cc(C(F)(F)F)nc(NCc3ccco3)n2)cc1OC | inactive
COc1cc(/C=C2\SC(=S)N(Nc3ncc(C(F)(F)F)cc3Cl)C2=O)ccc1O | inconclusive: 0.562 µM [inhibitor, full curve, poor fit]
COc1ccccc1CNC(=O)Nc1ccc2c(c1)N(C)C(=O)c1ccccc1S2 | inactive
CCN(CC)c1ccc(CN(C)CCc2ccc(OC)c(OC)c2)cc1 | inconclusive: 25.9 µM [inhibitor, single point]
COc1ccc(-c2nc(CS(=O)CC(=O)N3CCN(C)CC3)c(C)o2)cc1OC (stereo not drawn) | inconclusive: 0.562 µM [inhibitor, full curve, poor fit]
CCCc1cc(C(=O)OCC(=O)N(CCC)c2c(N)n(Cc3ccccc3)c(=O)[nH]c2=O)sc1C | inconclusive: 28.2 µM [inhibitor, single point]
CCN(CC)CCn1c(=N)n(CC(O)COc2ccccc2)c2ccccc21 (stereo not drawn) | active: 4.47 µM
COCCCNCC(=O)Nc1ccc(OC(F)(F)F)cc1 | inconclusive: 0.112 µM [inhibitor, full curve, poor fit]
CC1=C(C(=O)Nc2ccc(C)cc2C)C(CC(C)C)n2nc(SCc3ccccc3C)nc2N1 (stereo not drawn) | inactive
CCS(=O)(=O)N1Cc2ccccc2CC1C(=O)Nc1ccc(NC(C)=O)cc1 (stereo not drawn) | inactive
COc1ccc(-c2nnn3c2nc(NCc2ccccc2)c2ccccc23)cc1 | inconclusive: 1.12 µM [inhibitor, full curve, poor fit]
CCOC(=O)c1c(CC(C)C)csc1NC(C)=O | inconclusive: 1.26 µM [activator, partial curve, poor fit]
CCCCCCCCCCCCCCCCCCNc1ccn(C2OC(COP(=O)(O)OCC3OC(n4cc(F)c(=O)[nH]c4=O)CC3O)C(O)C2O)c(=O)n1 (stereo not drawn) | inconclusive: 0.282 µM [inhibitor, full curve, poor fit]
COC(=O)c1ccccc1NC(=O)CCCn1nc(C)c2sc3ccccc3c2c1=O | inconclusive: 3.55 µM [inhibitor, single point]
c1ccc2sc(Nc3nc4cc5c(cc4s3)OCO5)nc2c1 | inconclusive: 22.4 µM [inhibitor, single point]
COc1ccc(OC)c(CN2CCC(C(=O)N3CCN(c4ccccc4F)CC3)CC2)c1 | inconclusive: 3.16 µM [activator, partial curve, poor fit]
CCN(CC)CC(O)c1ccc2ccc3ccc(O)cc3c2c1 (stereo not drawn) | inconclusive: 35.5 µM [inhibitor, single point]

3 of the compounds above, tab-delimited:
SMILES	Potency
COc1ccc(-c2cc(C(F)(F)F)nc(NCc3ccco3)n2)cc1OC	inactive
CCCCCCCCCCCCCCCCCCNc1ccn(C2OC(COP(=O)(O)OCC3OC(n4cc(F)c(=O)[nH]c4=O)CC3O)C(O)C2O)c(=O)n1 (stereo not drawn)	inconclusive: 0.282 µM [inhibitor, full curve, poor fit]
COC(=O)c1ccccc1NC(=O)CCCn1nc(C)c2sc3ccccc3c2c1=O	inconclusive: 3.55 µM [inhibitor, single point]

Ordered by molar mass (low to high): part of the list above.
SMILES | Potency
CCN(CC)c1ccc(CN(C)CCc2ccc(OC)c(OC)c2)cc1 | inconclusive: 25.9 µM [inhibitor, single point]
COc1ccc(-c2nnn3c2nc(NCc2ccccc2)c2ccccc23)cc1 | inconclusive: 1.12 µM [inhibitor, full curve, poor fit]
COc1cc(/C=C2/C(=O)N(c3ccc(C(=O)O)cc3)N=C2C)cc(OC)c1O | inactive

Continuation:

SMILES | Potency
Cn1c(NCCCN2CCOCC2)nc2c1c(=O)n(Cc1ccc(Cl)cc1)c(=O)n2C | inconclusive: 2.59 µM [inhibitor, partial curve]
COc1ccc(/C=C/C(=O)OCC(=O)NC2CCCCCCC2)cc1 | inconclusive: 35.5 µM [activator, single point]
Cn1c(CC(=O)Nc2ccc(Cl)c(Cl)c2)n[nH]c1=S | inactive
CC(C)C(=O)NNC(=O)CSc1nc(C2CCCCC2)nc2ccccc12 | inactive
COc1cccc(CN(C)C(=O)c2[nH]c(C)c(C(C)=O)c2C)c1OC | inconclusive: 8.91 µM [inhibitor, partial curve, poor fit]
CSc1nc(C)c(CCO)c(=O)[nH]1 | inconclusive: 14.1 µM [activator, single point]
O=C(CSc1nc2ccccc2c(=O)n1Cc1ccco1)NCc1ccco1 | inactive
O=C(Nc1cccc2ccccc12)c1ccc(Cn2cc(Cl)cn2)cc1 | inconclusive: 0.1 µM [inhibitor, full curve, poor fit]
CC(C)(c1ccccc1)c1ccc(OCCN2CCCC2)cc1 | inconclusive: 6.31 µM [inhibitor, full curve]
O=C(CSc1ccccn1)c1ccc(F)cc1 | inactive
O=C(O)c1cc(O)c2c(c1)[C@H]([C@H]1c3cc(C(=O)O)cc(O)c3C(=O)c3c(O[C@@H]4OC(CO)C(O)C(O)C4O)cccc31)c1cccc(O[C@@H]3OC(CO)C(O)C(O)C3O)c1C2=O (stereo partly drawn) | inconclusive: 0.0006 µM [inhibitor]
COc1cc(CN2CCN(C3CCC3)CC2CCO)cc(OC)c1 (stereo not drawn) | inactive
CC(C)(C)Nc1oc(-c2ccccc2)nc1-c1ccc(C(F)(F)F)cc1 | inactive
Cc1oc(-c2ccccc2F)nc1CN1CCC(C(=O)NCCc2ccc(Cl)cc2)CC1 | inconclusive: 4.47 µM [activator, full curve]
COc1ccccc1NC(=O)NC1(C(=O)N2CCCCCC2)CCCCC1 | inactive
O=C(Cn1cc(S(=O)(=O)c2ccc(F)cc2)c(=O)c2cc3c(cc21)OCO3)Nc1ccccc1 | inactive
O=C(CCCCCn1c(=S)[nH]c2ccc(N3CCOCC3)cc2c1=O)NCc1ccc(Cl)cc1 | inconclusive: 4.47 µM [inhibitor, partial curve, poor fit]
CCOc1ccccc1-c1nc(-c2cc3ccccc3nc2OC)no1 | inconclusive: 1.41 µM [inhibitor, full curve]
CCOc1ccc(OCCCCn2ccnc2)cc1 | inactive
CCOC(=O)C1(Cc2ccccc2)CCN(Cc2ccc(C3CCCCO3)s2)CC1 (stereo not drawn) | inconclusive: 25.1 µM [inhibitor, single point]
CCN(CC)S(=O)(=O)c1ccc(O)c(C(=O)OCC(=O)NC2CCCC2)c1 | inconclusive: 4.47 µM [activator, full curve, poor fit]
COCc1cc(C)n(CC(=O)Nc2ccc(N3CCOCC3)cc2)c(=O)c1C#N | inactive
COc1ccc(-c2nn(-c3ccccc3)cc2C(=O)NCCCn2ccnc2)cc1 | inconclusive: 3.26 µM [activator, partial curve, poor fit]

SMILES | Potency
Oc1ccccc1/C=N/Nc1ccccc1 | inconclusive: 10 µM [inhibitor, partial curve]
O=c1[nH]c(=O)n(C2CCCCC2)c(O)c1/C=C/C=Nc1ccccc1 | inconclusive: 35.5 µM [inhibitor, single point]
Cc1sc(N/N=C/c2ccco2)nc1-c1ccccc1 | inconclusive: 29.1 µM [inhibitor, single point]
COc1cccc(CN2CC(C(=O)NCCCCc3ccccn3)CCC2=O)c1 (stereo not drawn) | inactive
C=C(C)COc1ccc(-c2ncncc2-c2ccc(Br)cc2)c(O)c1 | inconclusive: 0.447 µM [activator, partial curve, poor fit]
COC(=O)C(Cc1ccccc1)NC(=O)C12CC3CC(CC(C3)C1)C2 (stereo not drawn) | inconclusive: 0.1 µM [activator, full curve, poor fit]
CCn1c(SCC(=O)N/N=C/c2cc(OC)c(OC)c(OC)c2)nc2ccccc21 | inconclusive: 35.5 µM [inhibitor, partial curve, poor fit]
CCOC(=O)CSc1ncnc2c1cnn2-c1ccc(Cl)cc1 | inactive
c1ccc(Nc2ccccn2)cc1 | inactive
Nc1cccc(C2=Nc3cccc4cccc(c34)N2)c1 | inconclusive: 14.1 µM [inhibitor, single point]
CC1=C(C(=O)OCCOC(C)C)C(c2cc3c(cc2Br)OCO3)CC(=O)N1 (stereo not drawn) | inconclusive: 0.326 µM [inhibitor, full curve]
O=C1CCCN1CCCNC(=S)Nc1ccccc1Cl | inactive
C=CCOc1ccc(Cl)cc1CNCCCN1CCOCC1 | inconclusive: 29.1 µM [inhibitor, single point]
CN1CCN(CC/C=C2/c3ccccc3Sc3ccc(S(=O)(=O)N(C)C)cc32)CC1 | inactive and active: 3.98 µM
O=C(CCCN1CCc2[nH]c3ccc(F)cc3c2C1)c1ccc(F)cc1 | inconclusive: 14.1 µM [inhibitor, single point]
CCCCCCCCCCCCn1ccc(=N)cc1 | inconclusive: 2.24 µM [inhibitor, full curve, poor fit]
CC(C)[C@H](Nc1ccc(C(F)(F)F)cc1[N+](=O)[O-])C(=O)O | inconclusive: 0.794 µM [inhibitor, partial curve, poor fit]
CCC(=O)c1cc2c(cc1NC(=O)c1ccccc1)OCCO2 | inactive
Cc1ccc(-c2ocnc2C(=O)Nc2ccccc2NC(=O)c2ccccn2)cc1 | inconclusive: 17.8 µM [inhibitor, partial curve, poor fit]
COc1cc(CNc2ccc3[nH]c(=O)[nH]c3c2)ccc1OCC(=O)NC(C)(C)C | inactive
O=C(NC1CCCCCC1)c1c(O)nc2sccn2c1=O | inactive
O=C(N/C(=C/c1ccc([N+](=O)[O-])cc1)C(=O)N1CCOCC1)c1ccco1 | inconclusive: 10 µM [activator, partial curve, poor fit]
